No constants are given. Whether binding was seen depends on the method and setting. Some binding calls cover weakened binding; strength is not graded here.
T1: 인간 TIGIT (human TIGIT on cells) (human) (UniProt Q495A1)
T1 sequence (looked up): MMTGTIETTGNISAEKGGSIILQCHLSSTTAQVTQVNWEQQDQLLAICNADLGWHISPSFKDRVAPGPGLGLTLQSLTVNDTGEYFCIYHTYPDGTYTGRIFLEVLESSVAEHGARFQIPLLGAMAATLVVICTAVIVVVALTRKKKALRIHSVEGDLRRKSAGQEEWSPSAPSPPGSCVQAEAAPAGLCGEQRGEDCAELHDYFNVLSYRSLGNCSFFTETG


Target: T1, 인간 TIGIT (human TIGIT on cells) (human)
Test: flow cytometry on CD4 and CD8 T cells of anti-hCD3/28-activated human PBMC

Binder	binding
chimeric-후보항체 clone 58C (antibody, V domains shown) VH: EVQLQQSGPELVKPGASMKISCKASGYSFTGYIMNWVKQSHGKNLEWIGLINPYNGGSSYNQKFKGKATLTVDKSSSTAYMELLSLTSEDSAVYYCARFLRGYYAVDYWGQGTSVTVSS VL: DVVVTQTPLSLPVSFGDQVSISCRSSQSLVNSYGHTYLSWYLHKPGQSPQLLIYGISNRFSGVPDRFSGSGSGTDFTLKISTIKPEDLGMYYCLQGTHQPWTFGGGTKLEIK	binds
chimeric-후보항체 clone 63F (antibody, V domains shown) VH: EVQLEEFGGGLVQPGGSMKLSCVASGSTFSNYWMNWVRQSPEKGLEWVAEIRLKFNNYATHYVESVIGRFTISRDDSKSSVYLQMNNLRAEDTGIYYCTMVRRNWYFDVWGAGTTVTVSS VL: QIVLTQSPAIMSAFPGEKVTLTCSASSSVSSSYLYWYQQKPRSSPKLWIYSTSNLASGVPARFSGSGSGTSYSLTISSMEAEDAASYFCHQWSSYPYTFGGGTKLEIK	binds

From patent KR20220082776A
